Measured values published in PMC9199239.
Substitutions are numbered along the chain they refer to. No constants are given. Whether binding was seen depends on the method and setting. Binding seen in cells or lysates may run through a third protein. Some binding calls cover weakened binding; strength is not graded here. For part of these data: Sequences can lack the tags named with a protein.

Amino acid sequences for entries named in this document (tags omitted).
UniProt Q05397: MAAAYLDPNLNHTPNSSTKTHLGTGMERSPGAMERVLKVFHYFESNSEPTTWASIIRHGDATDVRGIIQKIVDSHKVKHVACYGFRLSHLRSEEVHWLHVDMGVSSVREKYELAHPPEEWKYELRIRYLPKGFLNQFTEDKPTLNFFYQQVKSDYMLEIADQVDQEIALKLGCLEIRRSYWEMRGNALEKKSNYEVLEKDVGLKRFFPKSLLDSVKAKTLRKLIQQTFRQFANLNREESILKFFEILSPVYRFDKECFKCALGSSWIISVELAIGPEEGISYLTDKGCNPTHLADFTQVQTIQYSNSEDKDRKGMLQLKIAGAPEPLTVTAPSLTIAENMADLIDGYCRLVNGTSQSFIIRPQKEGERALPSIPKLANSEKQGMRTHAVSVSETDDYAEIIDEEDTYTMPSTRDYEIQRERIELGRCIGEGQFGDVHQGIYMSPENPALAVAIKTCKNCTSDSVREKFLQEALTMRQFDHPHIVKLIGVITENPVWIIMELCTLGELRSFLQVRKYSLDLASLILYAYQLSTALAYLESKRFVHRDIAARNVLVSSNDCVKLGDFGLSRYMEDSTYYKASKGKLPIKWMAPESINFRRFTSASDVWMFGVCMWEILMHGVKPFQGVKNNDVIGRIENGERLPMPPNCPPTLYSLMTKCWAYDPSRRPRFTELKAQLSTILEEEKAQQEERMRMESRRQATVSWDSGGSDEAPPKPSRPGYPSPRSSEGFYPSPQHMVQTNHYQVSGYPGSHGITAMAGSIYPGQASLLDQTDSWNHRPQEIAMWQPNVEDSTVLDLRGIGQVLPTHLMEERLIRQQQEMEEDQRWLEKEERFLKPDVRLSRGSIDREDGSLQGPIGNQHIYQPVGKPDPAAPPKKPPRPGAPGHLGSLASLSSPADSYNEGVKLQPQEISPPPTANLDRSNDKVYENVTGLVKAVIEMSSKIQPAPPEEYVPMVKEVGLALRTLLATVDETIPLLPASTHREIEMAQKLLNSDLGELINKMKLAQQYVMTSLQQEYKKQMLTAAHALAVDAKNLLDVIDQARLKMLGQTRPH
UniProt Q07157: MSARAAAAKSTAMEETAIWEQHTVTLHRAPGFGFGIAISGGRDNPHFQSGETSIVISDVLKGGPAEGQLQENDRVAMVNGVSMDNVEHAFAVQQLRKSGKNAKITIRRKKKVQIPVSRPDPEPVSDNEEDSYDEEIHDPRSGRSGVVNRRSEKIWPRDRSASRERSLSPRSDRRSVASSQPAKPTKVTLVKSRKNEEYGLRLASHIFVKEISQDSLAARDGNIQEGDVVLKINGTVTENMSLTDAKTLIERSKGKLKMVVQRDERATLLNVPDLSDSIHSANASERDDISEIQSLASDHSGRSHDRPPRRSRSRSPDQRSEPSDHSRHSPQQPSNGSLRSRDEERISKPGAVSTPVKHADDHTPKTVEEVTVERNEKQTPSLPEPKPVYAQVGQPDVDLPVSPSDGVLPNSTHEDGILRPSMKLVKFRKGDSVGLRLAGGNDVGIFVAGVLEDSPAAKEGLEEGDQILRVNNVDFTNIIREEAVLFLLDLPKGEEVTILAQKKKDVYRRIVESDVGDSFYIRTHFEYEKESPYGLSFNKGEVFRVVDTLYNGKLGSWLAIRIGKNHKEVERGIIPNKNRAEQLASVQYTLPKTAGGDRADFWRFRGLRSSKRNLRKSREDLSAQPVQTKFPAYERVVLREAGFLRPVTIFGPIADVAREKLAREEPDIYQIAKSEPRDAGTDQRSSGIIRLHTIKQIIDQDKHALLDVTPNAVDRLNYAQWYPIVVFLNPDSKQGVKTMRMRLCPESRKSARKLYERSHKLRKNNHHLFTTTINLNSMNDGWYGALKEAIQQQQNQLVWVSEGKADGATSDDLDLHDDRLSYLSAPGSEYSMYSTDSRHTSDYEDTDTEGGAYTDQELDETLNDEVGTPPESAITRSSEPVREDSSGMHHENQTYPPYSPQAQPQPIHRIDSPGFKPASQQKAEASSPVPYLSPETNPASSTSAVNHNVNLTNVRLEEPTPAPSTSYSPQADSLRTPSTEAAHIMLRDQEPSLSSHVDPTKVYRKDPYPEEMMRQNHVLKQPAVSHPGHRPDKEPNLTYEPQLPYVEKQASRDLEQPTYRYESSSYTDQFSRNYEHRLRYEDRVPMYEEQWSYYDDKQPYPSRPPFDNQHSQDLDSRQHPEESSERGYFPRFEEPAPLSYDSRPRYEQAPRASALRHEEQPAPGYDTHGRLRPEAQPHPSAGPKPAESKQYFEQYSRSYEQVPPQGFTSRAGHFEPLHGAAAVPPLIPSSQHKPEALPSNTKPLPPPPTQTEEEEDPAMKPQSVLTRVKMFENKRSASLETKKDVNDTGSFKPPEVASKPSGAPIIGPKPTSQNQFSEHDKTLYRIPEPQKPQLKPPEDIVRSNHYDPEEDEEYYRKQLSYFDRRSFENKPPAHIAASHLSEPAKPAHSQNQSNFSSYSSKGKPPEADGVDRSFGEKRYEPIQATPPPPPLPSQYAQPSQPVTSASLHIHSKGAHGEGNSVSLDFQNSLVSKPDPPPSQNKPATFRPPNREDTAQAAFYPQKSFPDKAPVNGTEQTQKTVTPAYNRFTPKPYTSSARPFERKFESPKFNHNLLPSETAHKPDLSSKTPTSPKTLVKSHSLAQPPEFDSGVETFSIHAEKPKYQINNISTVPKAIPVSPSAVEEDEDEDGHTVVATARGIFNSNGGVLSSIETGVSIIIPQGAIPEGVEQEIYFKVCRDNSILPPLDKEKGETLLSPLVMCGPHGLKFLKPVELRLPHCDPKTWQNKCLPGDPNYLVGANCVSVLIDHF

Assays:
[1] = target: T1, Flag-tagged human OCLN (Y287/315/325/443F) (human) (UniProt Q16625); assay: co-IP; anti-Flag immunoprecipitation of Flag-OCLN or OCLN-4YF from H1299 derivative cells, with or without H2O2 (1 mM, 30 min; 0.5 mM in DUSP3TR/OCLN cells with or without tetracycline for 12 h); immunoblot of the immunocomplexes
T1 sequence: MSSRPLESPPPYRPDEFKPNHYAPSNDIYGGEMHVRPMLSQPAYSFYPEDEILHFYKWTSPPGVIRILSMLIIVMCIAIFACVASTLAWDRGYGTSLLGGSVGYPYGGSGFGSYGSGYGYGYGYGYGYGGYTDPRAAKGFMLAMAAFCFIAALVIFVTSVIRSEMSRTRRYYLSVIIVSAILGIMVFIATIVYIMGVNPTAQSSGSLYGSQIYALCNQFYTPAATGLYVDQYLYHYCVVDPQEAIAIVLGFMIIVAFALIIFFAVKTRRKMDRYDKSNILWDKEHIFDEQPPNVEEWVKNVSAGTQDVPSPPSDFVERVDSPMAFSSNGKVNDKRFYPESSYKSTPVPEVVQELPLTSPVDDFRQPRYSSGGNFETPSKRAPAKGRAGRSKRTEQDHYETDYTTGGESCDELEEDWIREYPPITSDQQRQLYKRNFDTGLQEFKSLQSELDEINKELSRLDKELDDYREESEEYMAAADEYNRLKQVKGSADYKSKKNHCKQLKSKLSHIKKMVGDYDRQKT

[2] = target: T2, Flag-tagged human OCLN (wild type) (human) (UniProt Q16625); assay: as above
T2 sequence: T1 sequence with F287Y, F315Y, F325Y, F443Y

[3] = target: T3, Occludin (OCLN), endogenous in H1299-DUSP3TR and H1299-DUSP3-CSTR cells (human (endogenous in H1299)) (UniProt Q16625); assay: co-IP; endogenous OCLN and ZO-1 immunoprecipitated from H1299-DUSP3TR and H1299-DUSP3-CSTR cells treated with or without tetracycline (1 μg/ml, 8 h); immunoblot of the immunocomplexes
T3 sequence: T1 sequence with F287Y, F315Y, F325Y, F443Y

| Substance | binding [1] | binding [2] | binding [3] |
| --- | --- | --- | --- |
| Focal adhesion kinase (FAK), endogenous in H1299 cells (from UniProt Q05397 1-1052) (enzyme) | binds | binds | – |
| Zonula occludens-1 (ZO-1), endogenous in H1299-DUSP3TR and H1299-DUSP3-CSTR cells (from UniProt Q07157 1-1748) | – | – | binds |
